The campaign covered roughly 320,000 compounds. About 200 (0.062%) were called active. All entries are inconclusive by the source's own rule. Clear calls are listed elsewhere. Calls come from the whole dose curve; as a rule, active = well fitted activation curve with a large enough effect; inconclusive = small, poorly fitted or top-dose-only effect; inactive = no such curve, though single readings can be large or run the other way.
Test: qHTS assay for re-activators of p53 using a Luc reporter; note: nearly all actives have a fitted effect of over 45% in size
Conditions: H1299 p53-A138V BP100-luciferase reporter, luminescence, 24 h
Text: The p53 tumor suppressor plays a key role in suppression of tumorigenesis and in human carcinogenesis. It is frequently found inactivated in human cancers, mainly by point mutation. These point mutations are found in a wide variety of human cancers and a majority of them affect the DNA binding domain of the protein. The point mutations either alter native p53 conformation or abolish DNA contact. Additionally, cancer cells with p53 mutations are more resistant to chemo-radiation therapies. In order to find activators to reactivate this important protein, a cell-based screen for p53-dependent luciferase-reporter expression was developed. A p53-null H1299 lung cancer cell line was stably co-transfected with a temperature sensitive p53 mutant, p53-A138V, and a p53-responsive BP100-luciferase reporter. This cell model has previously been characterized in a gene chip profiling experiment for p53 activation. […] At assay temperate, 37 deg C, basal reporter expression is very low and after the addition of detection reagent, a luminescent read-out is carried out. […]
5ul of 1000 cells per well are dispensed in all wells except column 4, into white solid-bottom TC-treated Kalypsys plates. […] Plates are incubated for 10 min at ambient room temperature and are then read on the ViewLux (Perkin Elmer) using a clear filter for a luminescent read-out.
Potency is the fitted concentration of half-maximal effect.

Row | Structure (SMILES) | Potency
1 | CCCN1CCC(Nc2cc(OC)cc(OC)c2)CC1 | inconclusive: 31.6 µM
